{
  "source": "patent EP0080822A1",
  "about": "“Anti-hypertensive prolinol-based peptides” (BEECHAM GROUP PLC, priority 1981, dated 1983)",
  "target": "T1, angiotensin converting enzyme (Rattus norvegicus, UniProt P47820)",
  "T1 construct": "were each tested in anaesthetised rats; from tissue; host or cells: whole animal (anaesthetised rat)",
  "T1 sequence (P47820 36-1313)": "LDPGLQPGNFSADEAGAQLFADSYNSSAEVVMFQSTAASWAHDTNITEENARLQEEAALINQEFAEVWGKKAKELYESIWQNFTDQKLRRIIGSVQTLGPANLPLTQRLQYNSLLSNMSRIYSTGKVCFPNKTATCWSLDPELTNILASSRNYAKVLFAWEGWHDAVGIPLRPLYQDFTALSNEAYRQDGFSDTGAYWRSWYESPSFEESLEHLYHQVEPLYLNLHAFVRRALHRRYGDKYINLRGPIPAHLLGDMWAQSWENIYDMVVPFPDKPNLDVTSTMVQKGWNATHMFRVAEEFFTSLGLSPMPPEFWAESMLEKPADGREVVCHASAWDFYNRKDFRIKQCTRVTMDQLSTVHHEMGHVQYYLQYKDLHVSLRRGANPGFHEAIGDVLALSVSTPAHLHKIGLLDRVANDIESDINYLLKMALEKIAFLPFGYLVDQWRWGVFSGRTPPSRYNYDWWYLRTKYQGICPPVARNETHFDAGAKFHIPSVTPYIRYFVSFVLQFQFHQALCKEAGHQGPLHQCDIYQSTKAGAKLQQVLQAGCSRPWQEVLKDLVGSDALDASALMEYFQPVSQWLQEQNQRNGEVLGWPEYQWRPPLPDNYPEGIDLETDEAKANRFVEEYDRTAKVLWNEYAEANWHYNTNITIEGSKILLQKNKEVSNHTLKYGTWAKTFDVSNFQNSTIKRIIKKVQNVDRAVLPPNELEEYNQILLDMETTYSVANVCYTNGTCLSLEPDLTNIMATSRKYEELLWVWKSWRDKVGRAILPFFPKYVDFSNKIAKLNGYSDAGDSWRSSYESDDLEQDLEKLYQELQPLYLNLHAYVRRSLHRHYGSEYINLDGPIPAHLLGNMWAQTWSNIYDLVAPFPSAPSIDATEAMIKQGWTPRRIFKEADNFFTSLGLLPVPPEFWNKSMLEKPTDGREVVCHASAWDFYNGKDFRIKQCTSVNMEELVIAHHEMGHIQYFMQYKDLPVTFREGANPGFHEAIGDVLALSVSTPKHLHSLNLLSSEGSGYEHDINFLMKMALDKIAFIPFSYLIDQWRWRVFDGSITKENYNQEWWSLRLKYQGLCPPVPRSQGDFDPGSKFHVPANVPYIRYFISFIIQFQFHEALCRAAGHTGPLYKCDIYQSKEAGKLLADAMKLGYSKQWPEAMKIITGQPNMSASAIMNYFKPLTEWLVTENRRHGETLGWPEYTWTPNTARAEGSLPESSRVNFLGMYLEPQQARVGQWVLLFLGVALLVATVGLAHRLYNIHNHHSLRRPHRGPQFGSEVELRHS",
  "assay": "In vivo test for inhibition of angiotensin converting enzyme: pressor responses to angiotensin I and II in anaesthetised rats",
  "conditions": "angiotensin II 100 ng/kg (i.v)",
  "procedure": "2. In vivo test for inhibition of angiotensin converting enzyme.\nThe compounds of examples 1,2,4 & 5 were each tested in anaesthetised rats for their ability to reduce the pressor responses to angiotensin I, but not those to angiotensin II. The dose of angiotensin I was 300 n.g/kg (i.v) and the dose of angiotensin II was 100 ng/kg (i.v).\nThe results given are the mean of those obtained from the given number of rats.\n'I' is the increase in diastolic blood pressure (mm Hg) to angiotensin I (control reponse).\n'%R' is the percentage reduction in control angiotensin I response after the intervals (min) from dosage.",
  "note": "Some entries share one result that the patent states for a list of compounds.",
  "data": [
    {"substance": "N-(1-carbethoxy-3-phenylpropyl)-(S)-alanyl-4α-benzyloxy-(S)-proline [Example 2]", "values": [
      {"measurement": "pressor responses to angiotensin II", "result": "slightly augmented"}
    ]}
  ]
}
